The list shows a part of the results. Most entries show no effect beyond the scatter of the controls.

Sequences of proteins named here, by UniProt entry; tags and fusion partners are left off. A change or cut given only in a name is not applied to a line headed by its entry.
UniProt Q9UQR1: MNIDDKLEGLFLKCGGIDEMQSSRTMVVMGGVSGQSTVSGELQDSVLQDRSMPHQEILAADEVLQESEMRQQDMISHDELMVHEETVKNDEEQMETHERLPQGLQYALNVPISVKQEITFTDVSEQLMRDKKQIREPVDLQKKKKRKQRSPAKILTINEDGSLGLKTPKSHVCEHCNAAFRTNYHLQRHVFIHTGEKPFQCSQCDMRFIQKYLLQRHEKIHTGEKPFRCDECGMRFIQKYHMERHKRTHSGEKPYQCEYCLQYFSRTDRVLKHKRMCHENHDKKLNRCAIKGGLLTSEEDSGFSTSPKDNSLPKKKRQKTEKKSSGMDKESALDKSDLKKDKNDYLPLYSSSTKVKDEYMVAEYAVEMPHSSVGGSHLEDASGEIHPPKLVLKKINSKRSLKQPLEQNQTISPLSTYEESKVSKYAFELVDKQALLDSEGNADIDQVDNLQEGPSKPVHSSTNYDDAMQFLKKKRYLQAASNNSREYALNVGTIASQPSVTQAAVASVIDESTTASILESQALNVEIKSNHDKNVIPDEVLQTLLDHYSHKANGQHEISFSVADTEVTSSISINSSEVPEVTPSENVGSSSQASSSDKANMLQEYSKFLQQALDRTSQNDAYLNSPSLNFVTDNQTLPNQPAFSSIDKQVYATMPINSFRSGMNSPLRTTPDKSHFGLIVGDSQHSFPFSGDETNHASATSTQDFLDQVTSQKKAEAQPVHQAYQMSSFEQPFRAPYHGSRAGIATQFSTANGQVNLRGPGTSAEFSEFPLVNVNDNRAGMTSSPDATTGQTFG
UniProt Q9UKV0: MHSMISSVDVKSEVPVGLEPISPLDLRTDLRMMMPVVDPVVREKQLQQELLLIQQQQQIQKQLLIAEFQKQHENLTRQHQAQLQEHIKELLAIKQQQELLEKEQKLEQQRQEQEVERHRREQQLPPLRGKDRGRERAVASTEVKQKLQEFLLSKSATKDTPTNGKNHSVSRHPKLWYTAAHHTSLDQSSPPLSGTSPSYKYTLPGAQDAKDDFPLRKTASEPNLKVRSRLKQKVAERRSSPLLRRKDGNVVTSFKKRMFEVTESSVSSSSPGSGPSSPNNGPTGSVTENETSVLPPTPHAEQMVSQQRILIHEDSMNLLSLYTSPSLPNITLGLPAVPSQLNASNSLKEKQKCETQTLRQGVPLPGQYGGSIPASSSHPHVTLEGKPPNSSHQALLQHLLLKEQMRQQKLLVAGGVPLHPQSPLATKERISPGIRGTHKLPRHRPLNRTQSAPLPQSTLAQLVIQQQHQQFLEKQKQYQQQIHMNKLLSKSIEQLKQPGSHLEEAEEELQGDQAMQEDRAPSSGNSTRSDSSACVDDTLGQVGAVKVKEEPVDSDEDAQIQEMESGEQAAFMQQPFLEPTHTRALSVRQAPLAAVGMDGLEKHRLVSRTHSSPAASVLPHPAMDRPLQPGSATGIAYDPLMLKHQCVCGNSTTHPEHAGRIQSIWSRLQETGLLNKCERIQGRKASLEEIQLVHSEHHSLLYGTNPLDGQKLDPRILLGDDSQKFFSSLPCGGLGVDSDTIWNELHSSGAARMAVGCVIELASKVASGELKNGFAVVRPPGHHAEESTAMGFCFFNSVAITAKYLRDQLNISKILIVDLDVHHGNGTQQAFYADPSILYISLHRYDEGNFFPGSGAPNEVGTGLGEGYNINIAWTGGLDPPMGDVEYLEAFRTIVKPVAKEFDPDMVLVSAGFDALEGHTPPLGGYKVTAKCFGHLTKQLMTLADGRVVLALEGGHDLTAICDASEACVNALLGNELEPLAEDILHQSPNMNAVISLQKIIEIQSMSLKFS
UniProt Q9UPR0: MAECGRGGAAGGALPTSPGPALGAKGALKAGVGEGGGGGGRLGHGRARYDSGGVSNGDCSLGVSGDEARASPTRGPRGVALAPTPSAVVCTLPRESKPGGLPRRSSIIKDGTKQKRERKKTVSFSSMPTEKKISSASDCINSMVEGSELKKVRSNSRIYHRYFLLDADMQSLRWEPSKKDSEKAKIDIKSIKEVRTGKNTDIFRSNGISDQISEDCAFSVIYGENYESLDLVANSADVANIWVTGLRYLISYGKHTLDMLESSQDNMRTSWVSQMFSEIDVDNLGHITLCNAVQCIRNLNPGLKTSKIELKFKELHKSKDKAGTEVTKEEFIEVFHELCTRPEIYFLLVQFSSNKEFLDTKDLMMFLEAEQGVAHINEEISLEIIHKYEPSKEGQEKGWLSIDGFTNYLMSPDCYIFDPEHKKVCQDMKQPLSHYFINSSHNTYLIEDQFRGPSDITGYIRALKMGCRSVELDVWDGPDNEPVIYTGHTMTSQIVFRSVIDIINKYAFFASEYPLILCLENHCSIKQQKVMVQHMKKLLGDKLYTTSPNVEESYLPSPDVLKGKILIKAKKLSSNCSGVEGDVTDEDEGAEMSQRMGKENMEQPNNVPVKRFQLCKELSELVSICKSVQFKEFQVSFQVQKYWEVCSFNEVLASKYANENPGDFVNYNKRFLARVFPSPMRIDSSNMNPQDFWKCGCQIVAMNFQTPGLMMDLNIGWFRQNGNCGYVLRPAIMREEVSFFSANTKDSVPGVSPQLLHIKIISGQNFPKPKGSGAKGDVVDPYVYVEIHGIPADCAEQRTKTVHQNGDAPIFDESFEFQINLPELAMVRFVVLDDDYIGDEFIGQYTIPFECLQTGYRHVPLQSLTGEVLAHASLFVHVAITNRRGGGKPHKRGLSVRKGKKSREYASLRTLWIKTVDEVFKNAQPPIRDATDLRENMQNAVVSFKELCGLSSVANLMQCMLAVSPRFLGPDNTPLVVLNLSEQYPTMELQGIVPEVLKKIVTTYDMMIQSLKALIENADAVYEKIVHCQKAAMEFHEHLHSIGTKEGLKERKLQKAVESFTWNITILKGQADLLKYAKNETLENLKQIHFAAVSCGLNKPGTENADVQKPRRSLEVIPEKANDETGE
UniProt Q9UK76: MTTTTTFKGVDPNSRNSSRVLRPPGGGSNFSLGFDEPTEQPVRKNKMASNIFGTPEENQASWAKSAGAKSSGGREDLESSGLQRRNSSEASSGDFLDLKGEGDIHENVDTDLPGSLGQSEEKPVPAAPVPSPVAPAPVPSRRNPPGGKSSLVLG
UniProt Q9UJC5: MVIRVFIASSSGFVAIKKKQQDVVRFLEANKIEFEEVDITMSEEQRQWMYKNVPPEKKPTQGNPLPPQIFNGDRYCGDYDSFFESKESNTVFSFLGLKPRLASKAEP
UniProt Q9ULH1: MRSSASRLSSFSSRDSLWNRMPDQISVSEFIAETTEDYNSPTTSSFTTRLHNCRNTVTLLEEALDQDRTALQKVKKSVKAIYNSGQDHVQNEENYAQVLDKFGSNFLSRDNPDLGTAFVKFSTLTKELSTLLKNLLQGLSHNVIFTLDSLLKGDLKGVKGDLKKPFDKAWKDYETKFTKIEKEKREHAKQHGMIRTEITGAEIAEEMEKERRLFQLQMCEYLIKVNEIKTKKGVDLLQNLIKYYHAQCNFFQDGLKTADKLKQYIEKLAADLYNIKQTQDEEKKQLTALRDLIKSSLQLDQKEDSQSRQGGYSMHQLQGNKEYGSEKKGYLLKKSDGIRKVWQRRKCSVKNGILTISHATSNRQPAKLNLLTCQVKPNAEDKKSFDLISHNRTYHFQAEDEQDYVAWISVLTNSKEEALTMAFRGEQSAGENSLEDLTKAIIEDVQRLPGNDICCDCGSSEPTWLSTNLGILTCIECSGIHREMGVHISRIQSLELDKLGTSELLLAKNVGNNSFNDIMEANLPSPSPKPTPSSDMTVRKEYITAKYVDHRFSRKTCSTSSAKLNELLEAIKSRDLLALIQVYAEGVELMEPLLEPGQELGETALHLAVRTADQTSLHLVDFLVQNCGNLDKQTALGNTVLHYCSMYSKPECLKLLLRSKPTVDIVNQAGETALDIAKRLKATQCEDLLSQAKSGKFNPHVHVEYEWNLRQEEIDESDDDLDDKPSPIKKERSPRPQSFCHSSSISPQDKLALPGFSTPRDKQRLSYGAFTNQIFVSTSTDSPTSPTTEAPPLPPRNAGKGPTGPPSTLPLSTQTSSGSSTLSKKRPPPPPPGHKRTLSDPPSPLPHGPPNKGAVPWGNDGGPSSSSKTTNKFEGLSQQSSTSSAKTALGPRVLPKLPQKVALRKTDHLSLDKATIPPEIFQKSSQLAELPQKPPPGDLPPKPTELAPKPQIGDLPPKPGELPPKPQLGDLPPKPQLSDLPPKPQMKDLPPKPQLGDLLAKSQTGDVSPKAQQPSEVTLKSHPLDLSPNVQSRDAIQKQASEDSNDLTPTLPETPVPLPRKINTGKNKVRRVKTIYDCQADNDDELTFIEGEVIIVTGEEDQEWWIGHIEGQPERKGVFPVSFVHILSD
UniProt Q9UKB3: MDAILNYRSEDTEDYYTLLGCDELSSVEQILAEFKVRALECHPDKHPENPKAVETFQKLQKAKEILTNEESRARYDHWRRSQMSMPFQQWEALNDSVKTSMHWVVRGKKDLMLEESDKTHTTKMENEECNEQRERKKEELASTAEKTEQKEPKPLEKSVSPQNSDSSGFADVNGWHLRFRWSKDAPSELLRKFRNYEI
UniProt Q9Y244: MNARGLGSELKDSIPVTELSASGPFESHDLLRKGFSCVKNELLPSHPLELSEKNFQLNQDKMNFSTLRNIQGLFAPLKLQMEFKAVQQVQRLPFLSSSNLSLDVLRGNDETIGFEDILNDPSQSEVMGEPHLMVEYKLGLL
UniProt Q9UPQ3: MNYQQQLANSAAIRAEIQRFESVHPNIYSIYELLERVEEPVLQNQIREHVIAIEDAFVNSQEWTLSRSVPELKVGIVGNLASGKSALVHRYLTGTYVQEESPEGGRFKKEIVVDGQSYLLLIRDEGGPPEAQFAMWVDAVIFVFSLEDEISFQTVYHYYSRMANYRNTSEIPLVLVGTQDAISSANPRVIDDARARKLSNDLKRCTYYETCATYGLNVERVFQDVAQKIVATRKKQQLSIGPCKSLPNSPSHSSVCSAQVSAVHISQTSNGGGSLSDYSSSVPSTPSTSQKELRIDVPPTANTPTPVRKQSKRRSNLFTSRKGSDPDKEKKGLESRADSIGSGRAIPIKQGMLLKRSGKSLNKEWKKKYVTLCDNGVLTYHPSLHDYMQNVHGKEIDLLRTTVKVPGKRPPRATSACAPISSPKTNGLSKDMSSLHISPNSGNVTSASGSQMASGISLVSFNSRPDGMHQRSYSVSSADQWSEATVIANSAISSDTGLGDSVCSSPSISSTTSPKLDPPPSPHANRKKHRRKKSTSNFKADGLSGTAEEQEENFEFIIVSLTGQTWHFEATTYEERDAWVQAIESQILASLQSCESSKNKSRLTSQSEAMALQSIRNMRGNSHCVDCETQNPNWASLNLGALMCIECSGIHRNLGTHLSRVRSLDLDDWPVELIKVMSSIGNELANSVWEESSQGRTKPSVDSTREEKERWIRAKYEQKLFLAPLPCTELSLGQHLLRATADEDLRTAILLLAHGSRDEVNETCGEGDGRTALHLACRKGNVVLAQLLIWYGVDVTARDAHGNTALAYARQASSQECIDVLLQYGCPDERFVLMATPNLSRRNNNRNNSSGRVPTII
UniProt Q9UK41: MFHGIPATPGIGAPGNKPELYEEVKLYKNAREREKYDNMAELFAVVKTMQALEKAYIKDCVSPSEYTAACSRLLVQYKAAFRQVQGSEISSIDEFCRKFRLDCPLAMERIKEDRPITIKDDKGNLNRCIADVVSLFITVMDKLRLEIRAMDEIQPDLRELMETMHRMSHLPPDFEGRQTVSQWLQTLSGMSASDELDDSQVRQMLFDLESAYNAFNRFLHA

Compound in this assay: Cc1nc(Nc2ncc(C(=O)Nc3c(C)cccc3Cl)s2)cc(N2CCN(CCO)CC2)n1 [dasatinib]
Put plainly: log2 fold change of tryptic peptide abundance, ligand vs vehicle (limited proteolysis) (log2 ratio); higher = more trypsin-susceptible (destabilized). Particulars: ligand concentration: 5 uM; sample: K562 cleared lysate.
For “ZNF148 (peptide sequence: KAEAQPVHQAYQMSSFEQPFR, peptide start residue: 714) (UniProt Q9UQR1)”, the log2 fold change is -0.133.
On to “UniProt Q9UKV0 (peptide sequence: IQSIWSR, peptide start residue: 548)”, for which the log2 fold change was -0.115.
Consider “PLCL2 (peptide sequence: PKGSGAK, peptide start residue: 769) (UniProt Q9UPR0)”, for which the log2 fold change was 0.0705.
Take “UniProt Q9UK76 (peptide sequence: SSGGREDLESSGLQRR, peptide start residue: 70)”: the log2 fold change is -0.68.
As for “SH3BGRL2 (peptide sequence: ESNTVFSFLGLKPR, peptide start residue: 87) (UniProt Q9UJC5)”, the figure is -0.374.
As for “ASAP1 (peptide sequence: SFDLISHNR, peptide start residue: 384) (UniProt Q9ULH1)”, the figure is -0.193; as for “DNAJC12 (peptide sequence: EILTNEESR, peptide start residue: 64) (UniProt Q9UKB3)”, -0.31.
The figure for “DNPEP (peptide sequence: LLQAGFSELK, peptide start residue: 52) (UniProt Q9ULA0)” is 0.255; for “POMP (peptide sequence: NIQGLFAPLK, peptide start residue: 69) (UniProt Q9Y244)” it is -0.25; for “AGAP1 (peptide sequence: NNSSGRVPTII, peptide start residue: 847) (UniProt Q9UPQ3)” it is -0.344.
Turning to “VPS28 (peptide sequence: QVQGSEISSIDEFCRK, peptide start residue: 83) (UniProt Q9UK41)”, the log2 fold change is -0.166.

For the origin of these results see the supplement of paper PMC12819154, “High-throughput peptide-centric local stability assay extends protein–ligand identification to membrane proteins, tissues and bacteria” (Nature Structural & Molecular Biology, 2025).
